Data reported in the supplement of paper PMC12823440, “Inhibitors supercharge kinase turnover through native proteolytic circuits” (Nature, 2025).
Where a name gives a salt, the structure may show the parent alone. The list shows a part of the results. The calls rarely recur for the same compound in another form.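 In K562 cells expressing nanoluciferase-fused kinases, luminescence was recorded at 4 h intervals between 2 and 18 h, normalized as percent of control with DMSO at 100% and a positive control at 0%. A significant (2 sigma) signal drop marks a time point as decreased. The authors' rule for a hit is not shown and takes in more than the number of time points.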

The chains behind the UniProt entries cited, without tags or fusion partners. Where a name states a change or a piece, a line headed by the entry shows the natural chain unless it says otherwise.
UniProt Q01974, whole entry: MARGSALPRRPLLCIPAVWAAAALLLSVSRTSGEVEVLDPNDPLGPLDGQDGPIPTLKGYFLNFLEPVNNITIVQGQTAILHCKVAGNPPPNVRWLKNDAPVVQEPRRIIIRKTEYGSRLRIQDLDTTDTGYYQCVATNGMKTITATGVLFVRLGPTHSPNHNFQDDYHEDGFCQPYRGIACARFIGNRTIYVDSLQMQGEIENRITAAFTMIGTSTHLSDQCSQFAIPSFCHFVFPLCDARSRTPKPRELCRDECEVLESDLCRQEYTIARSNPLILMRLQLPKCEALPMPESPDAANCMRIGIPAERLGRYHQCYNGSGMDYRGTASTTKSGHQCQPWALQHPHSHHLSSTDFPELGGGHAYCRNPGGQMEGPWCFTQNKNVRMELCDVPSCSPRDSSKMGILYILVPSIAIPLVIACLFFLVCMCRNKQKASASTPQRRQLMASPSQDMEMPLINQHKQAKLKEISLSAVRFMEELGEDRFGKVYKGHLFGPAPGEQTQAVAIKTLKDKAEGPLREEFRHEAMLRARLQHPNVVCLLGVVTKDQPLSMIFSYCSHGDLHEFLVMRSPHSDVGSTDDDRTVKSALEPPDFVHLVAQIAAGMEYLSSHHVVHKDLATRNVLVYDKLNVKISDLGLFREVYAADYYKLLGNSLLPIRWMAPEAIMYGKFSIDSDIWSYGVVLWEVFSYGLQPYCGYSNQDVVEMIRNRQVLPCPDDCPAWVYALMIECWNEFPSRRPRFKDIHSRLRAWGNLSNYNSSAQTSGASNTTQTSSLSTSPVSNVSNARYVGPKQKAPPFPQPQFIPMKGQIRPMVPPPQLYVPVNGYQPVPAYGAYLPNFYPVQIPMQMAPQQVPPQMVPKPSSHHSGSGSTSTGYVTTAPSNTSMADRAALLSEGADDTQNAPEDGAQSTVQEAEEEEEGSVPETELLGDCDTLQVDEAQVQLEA
UniProt Q15418, whole entry: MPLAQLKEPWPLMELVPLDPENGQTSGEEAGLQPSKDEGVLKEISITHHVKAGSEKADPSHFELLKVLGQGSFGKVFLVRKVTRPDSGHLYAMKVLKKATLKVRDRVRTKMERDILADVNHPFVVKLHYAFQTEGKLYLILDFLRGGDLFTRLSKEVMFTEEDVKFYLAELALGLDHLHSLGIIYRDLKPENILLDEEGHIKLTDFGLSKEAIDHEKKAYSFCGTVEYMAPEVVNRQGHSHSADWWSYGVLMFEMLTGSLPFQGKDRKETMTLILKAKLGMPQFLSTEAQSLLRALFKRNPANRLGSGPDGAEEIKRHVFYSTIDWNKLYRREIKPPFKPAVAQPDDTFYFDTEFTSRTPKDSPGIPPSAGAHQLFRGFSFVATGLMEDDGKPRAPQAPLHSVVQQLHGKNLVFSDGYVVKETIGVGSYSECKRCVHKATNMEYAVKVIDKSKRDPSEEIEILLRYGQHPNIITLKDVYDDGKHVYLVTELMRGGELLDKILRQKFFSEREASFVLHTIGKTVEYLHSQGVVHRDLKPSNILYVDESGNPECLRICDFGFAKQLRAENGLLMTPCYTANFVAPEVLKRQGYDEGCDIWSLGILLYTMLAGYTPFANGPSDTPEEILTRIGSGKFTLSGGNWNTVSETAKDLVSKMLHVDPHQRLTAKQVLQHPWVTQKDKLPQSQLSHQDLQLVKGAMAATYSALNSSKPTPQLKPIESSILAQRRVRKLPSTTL
UniProt Q9NYA1, whole entry: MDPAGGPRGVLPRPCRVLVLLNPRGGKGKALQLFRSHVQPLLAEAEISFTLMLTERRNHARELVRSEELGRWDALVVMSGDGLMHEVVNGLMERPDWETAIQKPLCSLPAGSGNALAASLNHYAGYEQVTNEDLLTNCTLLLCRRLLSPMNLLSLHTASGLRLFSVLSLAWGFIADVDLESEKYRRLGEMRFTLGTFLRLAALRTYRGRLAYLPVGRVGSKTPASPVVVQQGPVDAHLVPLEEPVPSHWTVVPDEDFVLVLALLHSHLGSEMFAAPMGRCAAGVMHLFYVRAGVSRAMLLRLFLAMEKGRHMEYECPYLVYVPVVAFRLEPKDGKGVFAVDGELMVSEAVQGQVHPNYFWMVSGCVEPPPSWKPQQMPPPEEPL
UniProt Q9Y6E0: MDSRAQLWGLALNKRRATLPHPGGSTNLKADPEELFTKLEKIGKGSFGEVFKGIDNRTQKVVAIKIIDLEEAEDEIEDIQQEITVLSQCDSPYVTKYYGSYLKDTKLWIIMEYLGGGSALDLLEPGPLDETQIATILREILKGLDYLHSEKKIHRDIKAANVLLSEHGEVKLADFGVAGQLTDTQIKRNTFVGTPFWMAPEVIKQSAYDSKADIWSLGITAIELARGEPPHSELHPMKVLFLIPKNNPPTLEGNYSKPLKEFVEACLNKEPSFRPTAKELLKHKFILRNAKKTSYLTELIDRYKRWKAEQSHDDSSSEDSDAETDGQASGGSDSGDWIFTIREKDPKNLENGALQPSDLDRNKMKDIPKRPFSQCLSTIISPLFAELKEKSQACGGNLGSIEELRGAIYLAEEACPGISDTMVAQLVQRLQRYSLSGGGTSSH
UniProt Q15208: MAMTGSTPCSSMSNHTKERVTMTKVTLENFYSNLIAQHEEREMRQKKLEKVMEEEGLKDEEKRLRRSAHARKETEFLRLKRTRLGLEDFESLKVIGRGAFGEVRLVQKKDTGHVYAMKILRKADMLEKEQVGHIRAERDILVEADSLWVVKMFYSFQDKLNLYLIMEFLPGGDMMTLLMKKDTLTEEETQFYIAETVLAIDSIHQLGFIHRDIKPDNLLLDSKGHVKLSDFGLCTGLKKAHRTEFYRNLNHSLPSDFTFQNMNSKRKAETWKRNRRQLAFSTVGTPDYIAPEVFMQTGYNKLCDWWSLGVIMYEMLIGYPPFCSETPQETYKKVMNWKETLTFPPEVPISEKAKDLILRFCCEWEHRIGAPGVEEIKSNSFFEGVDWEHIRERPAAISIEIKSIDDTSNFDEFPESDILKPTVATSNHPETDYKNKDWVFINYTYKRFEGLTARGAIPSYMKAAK
UniProt P42680: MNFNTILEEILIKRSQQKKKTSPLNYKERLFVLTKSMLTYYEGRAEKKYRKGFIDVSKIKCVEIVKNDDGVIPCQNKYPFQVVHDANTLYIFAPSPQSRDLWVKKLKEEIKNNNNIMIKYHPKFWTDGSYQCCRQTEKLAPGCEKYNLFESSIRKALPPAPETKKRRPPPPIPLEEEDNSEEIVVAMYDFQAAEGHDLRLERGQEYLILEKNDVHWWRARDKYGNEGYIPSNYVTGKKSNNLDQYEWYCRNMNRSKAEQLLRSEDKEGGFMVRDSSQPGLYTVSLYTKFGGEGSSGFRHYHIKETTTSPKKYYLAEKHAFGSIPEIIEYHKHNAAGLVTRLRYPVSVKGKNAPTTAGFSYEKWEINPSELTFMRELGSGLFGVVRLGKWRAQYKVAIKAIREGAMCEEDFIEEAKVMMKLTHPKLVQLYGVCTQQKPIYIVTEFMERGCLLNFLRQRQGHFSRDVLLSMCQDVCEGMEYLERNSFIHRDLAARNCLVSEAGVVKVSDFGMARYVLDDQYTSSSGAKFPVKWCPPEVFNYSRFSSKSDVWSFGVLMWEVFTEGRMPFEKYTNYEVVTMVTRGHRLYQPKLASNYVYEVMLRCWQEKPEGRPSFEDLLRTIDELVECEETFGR
UniProt Q6PHR2: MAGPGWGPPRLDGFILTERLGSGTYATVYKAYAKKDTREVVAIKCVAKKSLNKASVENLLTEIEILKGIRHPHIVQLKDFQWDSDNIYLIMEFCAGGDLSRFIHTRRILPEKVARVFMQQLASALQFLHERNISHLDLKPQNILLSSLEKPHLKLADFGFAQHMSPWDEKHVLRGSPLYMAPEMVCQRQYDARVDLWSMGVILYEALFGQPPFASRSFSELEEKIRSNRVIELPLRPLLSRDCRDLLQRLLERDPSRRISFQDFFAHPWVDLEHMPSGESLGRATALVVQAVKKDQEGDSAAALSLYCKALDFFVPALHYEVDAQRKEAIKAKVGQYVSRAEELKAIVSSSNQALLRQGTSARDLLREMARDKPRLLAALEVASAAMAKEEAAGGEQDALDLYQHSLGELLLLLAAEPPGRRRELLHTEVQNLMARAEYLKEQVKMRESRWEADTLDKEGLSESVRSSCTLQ
UniProt P07947, whole entry, looked up: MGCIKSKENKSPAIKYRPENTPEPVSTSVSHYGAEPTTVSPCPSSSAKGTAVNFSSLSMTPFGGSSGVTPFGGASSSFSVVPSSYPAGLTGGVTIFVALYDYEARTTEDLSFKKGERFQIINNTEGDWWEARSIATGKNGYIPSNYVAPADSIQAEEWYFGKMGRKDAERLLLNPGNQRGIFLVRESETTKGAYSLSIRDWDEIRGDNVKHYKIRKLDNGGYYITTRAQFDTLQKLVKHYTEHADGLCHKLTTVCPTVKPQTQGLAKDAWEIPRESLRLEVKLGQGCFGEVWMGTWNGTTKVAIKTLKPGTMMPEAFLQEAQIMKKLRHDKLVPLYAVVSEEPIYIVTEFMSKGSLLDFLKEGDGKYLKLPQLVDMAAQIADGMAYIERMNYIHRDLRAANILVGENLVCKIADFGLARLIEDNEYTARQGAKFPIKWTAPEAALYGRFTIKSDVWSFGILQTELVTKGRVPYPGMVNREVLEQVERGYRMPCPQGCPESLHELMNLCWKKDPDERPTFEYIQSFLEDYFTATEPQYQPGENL
UniProt P43403: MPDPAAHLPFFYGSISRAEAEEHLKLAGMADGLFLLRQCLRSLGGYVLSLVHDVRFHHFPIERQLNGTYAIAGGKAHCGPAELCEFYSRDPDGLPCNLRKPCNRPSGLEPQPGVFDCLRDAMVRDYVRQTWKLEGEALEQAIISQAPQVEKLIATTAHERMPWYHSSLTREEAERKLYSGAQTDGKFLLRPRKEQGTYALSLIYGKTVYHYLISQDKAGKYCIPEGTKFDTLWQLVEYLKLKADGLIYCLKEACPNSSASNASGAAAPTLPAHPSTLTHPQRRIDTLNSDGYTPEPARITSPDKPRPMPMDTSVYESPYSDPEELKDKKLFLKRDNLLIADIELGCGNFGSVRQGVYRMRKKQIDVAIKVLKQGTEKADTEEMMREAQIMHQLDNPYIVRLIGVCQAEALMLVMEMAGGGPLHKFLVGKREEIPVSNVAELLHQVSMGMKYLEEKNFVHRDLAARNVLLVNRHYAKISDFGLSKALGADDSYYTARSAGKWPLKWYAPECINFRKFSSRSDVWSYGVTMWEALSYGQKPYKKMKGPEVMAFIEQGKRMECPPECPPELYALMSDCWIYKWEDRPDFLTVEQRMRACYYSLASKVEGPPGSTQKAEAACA
UniProt P11802: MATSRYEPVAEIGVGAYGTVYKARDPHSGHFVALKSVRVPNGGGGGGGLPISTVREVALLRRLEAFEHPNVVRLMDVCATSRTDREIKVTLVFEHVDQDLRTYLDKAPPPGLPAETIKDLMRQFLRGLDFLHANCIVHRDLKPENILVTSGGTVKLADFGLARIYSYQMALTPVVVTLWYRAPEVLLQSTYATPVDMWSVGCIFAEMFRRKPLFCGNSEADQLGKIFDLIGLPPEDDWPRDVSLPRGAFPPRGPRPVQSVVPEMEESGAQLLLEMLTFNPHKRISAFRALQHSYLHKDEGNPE
UniProt P50613: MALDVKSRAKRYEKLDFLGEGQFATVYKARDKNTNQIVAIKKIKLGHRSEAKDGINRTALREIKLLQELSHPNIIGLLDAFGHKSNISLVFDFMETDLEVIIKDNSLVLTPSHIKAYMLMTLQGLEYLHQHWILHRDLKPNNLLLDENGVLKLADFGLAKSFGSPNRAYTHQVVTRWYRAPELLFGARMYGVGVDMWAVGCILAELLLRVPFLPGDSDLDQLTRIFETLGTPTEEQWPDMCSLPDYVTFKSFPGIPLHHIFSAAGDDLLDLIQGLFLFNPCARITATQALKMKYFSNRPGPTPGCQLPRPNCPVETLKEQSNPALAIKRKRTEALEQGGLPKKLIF
UniProt P50750, whole entry: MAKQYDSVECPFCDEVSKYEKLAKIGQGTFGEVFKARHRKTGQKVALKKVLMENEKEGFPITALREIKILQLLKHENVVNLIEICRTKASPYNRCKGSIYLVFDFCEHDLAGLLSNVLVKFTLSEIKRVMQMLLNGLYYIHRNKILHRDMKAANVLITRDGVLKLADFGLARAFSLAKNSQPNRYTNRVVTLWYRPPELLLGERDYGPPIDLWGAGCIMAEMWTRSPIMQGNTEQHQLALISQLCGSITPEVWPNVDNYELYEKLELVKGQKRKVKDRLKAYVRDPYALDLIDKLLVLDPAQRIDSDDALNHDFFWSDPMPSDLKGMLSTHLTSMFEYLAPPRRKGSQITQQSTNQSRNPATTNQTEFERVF

How the values were obtained:
Conditions in all cases: K562; 2-18 h
ROR2 = ROR2 (UniProt Q01974); experiment: number of time points (of 5) at which kinase-Nluc abundance scored as decreased, DMSO-normalised (count); higher = more persistent destabilization
RPS6KA1 = RPS6KA1 (UniProt Q15418); experiment: as above
SPHK1 = SPHK1 (UniProt Q9NYA1); experiment: as above
SRC = SRC (UniProt P12931); experiment: as above
STK24 = STK24 (UniProt Q9Y6E0); experiment: as above
STK38 = STK38 (UniProt Q15208); experiment: as above
SYK = SYK (UniProt P43405); experiment: as above
TEC = TEC (UniProt P42680); experiment: as above
TYK2 = TYK2 (UniProt P29597); experiment: as above
ULK3 = ULK3 (UniProt Q6PHR2); experiment: as above
YES1 = YES1 (UniProt P07947); experiment: as above
ZAK = ZAK (UniProt Q9NYL2); experiment: as above
ZAP70 = ZAP70 (UniProt P43403); experiment: as above
CDK4 = CDK4 (UniProt P11802); experiment: number of time points (of 4; 2 h point missing) at which kinase-Nluc abundance scored as decreased, DMSO-normalised (count); higher = more persistent destabilization
CDK7 = CDK7 (UniProt P50613); experiment: as above
CDK9 = CDK9 (UniProt P50750); experiment: as above

Structure (SMILES)	number of time points (ROR2)	number of time points (RPS6KA1)	number of time points (SPHK1)	number of time points (SRC)	number of time points (STK24)	number of time points (STK38)	number of time points (SYK)	number of time points (TEC)	number of time points (TYK2)	number of time points (ULK3)	number of time points (YES1)	number of time points (ZAK)	number of time points (ZAP70)	number of time points (CDK4)	number of time points (CDK7)	number of time points (CDK9)
C[C@H](CCC(=O)O)C[C@H](C)C[C@H](C)C(=O)/C=C(\O)[C@H](C)C[C@H](C)C/C=C/[C@@H](C)[C@@H](O)[C@@H](C)[C@@H](O)C[C@@H]1CC[C@@](C)([C@H]2CC[C@@](C)([C@@H](C)O)O2)O1 [Ionomycin (calcium)] (2.5 µM)	0	0	1	0	0	5	0	0	0	0	0	0	0	0	0	0
COc1cc2c(cc1F)C(c1ccccc1Cl)=Nc1c(n[nH]c1C)N2 (0.5 µM)	0	0	0	0	0	0	0	0	0	0	0	0	0	0	0	0
COc1ccc(N(C(=O)Oc2c(C)cccc2C)c2ccnc(Nc3ccc(N4CCN(C)CC4)cc3)n2)c(OC)c1 (2.5 µM)	0	0	0	0	0	0	0	0	0	0	0	0	0	0	0	0
O=C1c2ccccc2C(=O)c2c1cccc2-c1cnn(C2CCNCC2)c1 [PDK4-IN-1 (hydrochloride)] (10 µM)	0	0	0	0	0	0	0	0	0	1	0	0	0	0	0	0
COc1ccc2c(c[n+](C)c3c4cc5c(cc4ccc23)OCO5)c1OC [Chelerythrine (chloride)] (10 µM)	0	0	0	0	0	0	0	0	0	0	0	4	0	0	0	0
O=c1ccc2cc(O[C@@H]3O[C@H](CO)[C@@H](O)[C@H](O)[C@H]3O)c(O)cc2o1 [Esculin] (10 µM)	0	0	0	0	0	0	0	0	0	0	0	0	0	0	0	0
O=[N+]([O-])/C=C/c1ccc2c(c1)OCO2 (2.5 µM)	0	0	0	0	0	0	0	0	0	0	0	0	0	0	0	0
Cc1[nH]ncc1-c1cc2nc([C@H]3CC4CCN3CC4)[nH]c(=O)c2s1 [(R)-Simurosertib] (10 µM)	0	0	0	0	0	0	0	0	0	0	0	0	0	0	0	0
CCCCCCCCCCCCCCCCOC[C@H](COP(=O)([O-])OCC[N+](C)(C)C)OC(C)=O (10 µM)	0	1	0	0	0	0	0	0	0	0	0	0	0	0	0	0
N#CC(C#N)=NNc1cccc(Cl)c1 (2.5 µM)	0	0	0	0	0	0	0	0	3	0	0	0	0	0	2	0
COc1ccc2c(c1)/C(=C/c1cnc[nH]1)C(=O)N2 (2.5 µM)	0	0	0	0	0	0	0	0	0	0	0	0	0	0	0	0
C[S+]([O-])/C=C/CCN=C=S (stereo unspecified) [Sulforaphene] (10 µM)	0	0	0	0	0	0	0	0	0	0	0	0	0	0	0	0
Cc1ccccc1-n1c(Cn2ncc3c(N)ncnc32)nc2cccc(C)c2c1=O (10 µM)	0	0	0	0	0	0	0	0	0	0	0	0	0	0	0	0
COc1ccc(/C=C/c2cc(OC)c(OC)c(OC)c2)cc1 (2.5 µM)	0	0	0	0	0	0	0	1	2	1	1	1	0	0	1	0
NCCc1cn(S(=O)(=O)c2c(Cl)nc3sccn23)c2ccccc12 (10 µM)	0	0	0	0	0	0	0	0	0	0	0	0	0	0	0	0
O=C1C=CC[C@@H]2[C@H]3CCCN4CCC[C@@H](CN12)[C@@H]34 [Sophocarpine] (10 µM)	0	0	0	0	0	0	0	0	0	0	0	0	0	0	0	0
CC1=C[C@]23C(=O)[C@@H](C=C(CO)[C@@H](O)[C@]2(O)[C@H]1O)[C@H]1[C@@H](C[C@H]3C)C1(C)C [Ingenol] (10 µM)	0	0	0	0	0	0	0	0	0	0	0	0	0	0	0	0
N#CC(C#N)=Cc1ccc([N+](=O)[O-])c(O)c1 (10 µM)	0	0	0	0	0	0	0	0	0	0	0	0	0	0	0	0
N#CC(C#N)=Cc1ccc(O)c(O)c1 [Tyrphostin 23] (10 µM)	0	0	0	0	0	0	0	0	0	0	0	0	0	0	0	0
O=C1C=CC[C@@H]2[C@H]3CCCN4CCC[C@@H](CN12)[C@@H]34 [Sophocarpine (monohydrate)] (2.5 µM)	0	0	0	0	0	0	0	0	0	0	0	0	0	0	0	0
C[C@@H]1CC[C@H]2[C@@H](C)C(=O)O[C@@H]3O[C@@]4(C)CC[C@@H]1[C@]32OO4 [Artemisinin] (10 µM)	0	0	0	0	0	0	0	0	0	0	0	0	0	0	0	0
CC(=O)c1c(O)c(C)c(O)c(Cc2c(O)c3c(c(C(=O)/C=C/c4ccccc4)c2O)OC(C)(C)C=C3)c1O [Rottlerin] (2 µM)	0	0	0	0	0	0	0	0	2	0	0	0	0	0	0	0
Nc1ncnc2c1ncn2[C@@H]1O[C@@H]2COP(O)(=S)O[C@H]2[C@H]1O (stereo partly specified) [Sp-cAMPS (sodium salt)] (10 µM)	0	0	0	0	0	0	0	0	0	0	0	0	0	0	0	0
Cn1cc(C2=C(c3cn(C4CCN(Cc5ccccn5)CC4)c4ccccc34)C(=O)NC2=O)c2ccccc21 [Enzastaurin] (10 µM)	0	0	0	0	1	0	0	0	0	0	0	0	0	0	0	0
CCCCNc1nc(N)c2[nH]c(=O)n(Cc3ccc(C)nc3)c2n1 (10 µM)	0	0	0	0	0	0	0	0	0	0	0	0	0	0	0	0
O=Cc1cn(Cc2ccc(Cl)cc2)c2ccccc12 [Oncrasin-1] (10 µM)	0	0	0	0	0	0	0	0	0	0	0	0	0	0	0	0

Part of the list above in a different format.
Structure (SMILES),number of time points (ROR2),number of time points (RPS6KA1),number of time points (SPHK1),number of time points (SRC),number of time points (STK24),number of time points (STK38),number of time points (SYK),number of time points (TEC),number of time points (TYK2),number of time points (ULK3),number of time points (YES1),number of time points (ZAK),number of time points (ZAP70),number of time points (CDK4),number of time points (CDK7),number of time points (CDK9)
N#CC(C#N)=Cc1ccc([N+](=O)[O-])c(O)c1 (10 µM),0,0,0,0,0,0,0,0,0,0,0,0,0,0,0,0
N#CC(C#N)=Cc1ccc(O)c(O)c1 [Tyrphostin 23] (10 µM),0,0,0,0,0,0,0,0,0,0,0,0,0,0,0,0
